Data published in publication PMC13379096.
These are yes or no findings as the source states them, for the method shown. In cells and extracts the contact can be indirect. These calls come from enrichment with a bait or labelling near it, and not all partners need be listed. Sequences can lack the tags named with a protein. Values belong to the molecule of their own block, whether it stands above or below them.

Protein sequences, listed by entry. Tags and fused reporters are not part of them.
UniProt O88543: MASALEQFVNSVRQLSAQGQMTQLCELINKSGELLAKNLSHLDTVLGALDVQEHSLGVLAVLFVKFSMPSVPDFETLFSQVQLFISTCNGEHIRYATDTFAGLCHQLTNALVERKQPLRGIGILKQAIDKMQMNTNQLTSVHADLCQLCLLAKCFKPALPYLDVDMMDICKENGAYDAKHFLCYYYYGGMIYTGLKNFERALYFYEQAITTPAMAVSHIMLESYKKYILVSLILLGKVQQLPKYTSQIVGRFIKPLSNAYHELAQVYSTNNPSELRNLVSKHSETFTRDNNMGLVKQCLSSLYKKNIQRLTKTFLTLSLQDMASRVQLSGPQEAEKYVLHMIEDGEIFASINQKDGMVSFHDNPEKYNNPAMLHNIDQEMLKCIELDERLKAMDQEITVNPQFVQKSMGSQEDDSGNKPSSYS
UniProt O88545: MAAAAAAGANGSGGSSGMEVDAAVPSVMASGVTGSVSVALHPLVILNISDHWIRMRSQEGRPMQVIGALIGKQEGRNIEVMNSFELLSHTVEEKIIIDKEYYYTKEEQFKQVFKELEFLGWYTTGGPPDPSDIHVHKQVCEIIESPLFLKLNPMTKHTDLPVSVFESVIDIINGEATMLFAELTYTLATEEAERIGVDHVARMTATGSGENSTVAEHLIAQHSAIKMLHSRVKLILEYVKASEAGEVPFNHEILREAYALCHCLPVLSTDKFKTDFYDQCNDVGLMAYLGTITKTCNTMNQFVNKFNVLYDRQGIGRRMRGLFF
UniProt P61202: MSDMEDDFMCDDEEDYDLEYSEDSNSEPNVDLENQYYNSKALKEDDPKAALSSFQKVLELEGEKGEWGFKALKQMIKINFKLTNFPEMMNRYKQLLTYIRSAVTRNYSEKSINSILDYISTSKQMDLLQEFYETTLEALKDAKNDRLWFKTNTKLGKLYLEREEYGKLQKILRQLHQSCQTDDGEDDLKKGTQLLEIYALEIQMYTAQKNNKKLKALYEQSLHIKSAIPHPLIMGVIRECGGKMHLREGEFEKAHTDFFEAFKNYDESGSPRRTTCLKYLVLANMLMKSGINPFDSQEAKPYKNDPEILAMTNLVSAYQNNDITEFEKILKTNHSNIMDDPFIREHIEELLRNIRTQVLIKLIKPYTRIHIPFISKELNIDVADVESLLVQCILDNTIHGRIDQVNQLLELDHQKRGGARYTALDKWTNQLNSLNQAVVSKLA
UniProt Q9JLV5: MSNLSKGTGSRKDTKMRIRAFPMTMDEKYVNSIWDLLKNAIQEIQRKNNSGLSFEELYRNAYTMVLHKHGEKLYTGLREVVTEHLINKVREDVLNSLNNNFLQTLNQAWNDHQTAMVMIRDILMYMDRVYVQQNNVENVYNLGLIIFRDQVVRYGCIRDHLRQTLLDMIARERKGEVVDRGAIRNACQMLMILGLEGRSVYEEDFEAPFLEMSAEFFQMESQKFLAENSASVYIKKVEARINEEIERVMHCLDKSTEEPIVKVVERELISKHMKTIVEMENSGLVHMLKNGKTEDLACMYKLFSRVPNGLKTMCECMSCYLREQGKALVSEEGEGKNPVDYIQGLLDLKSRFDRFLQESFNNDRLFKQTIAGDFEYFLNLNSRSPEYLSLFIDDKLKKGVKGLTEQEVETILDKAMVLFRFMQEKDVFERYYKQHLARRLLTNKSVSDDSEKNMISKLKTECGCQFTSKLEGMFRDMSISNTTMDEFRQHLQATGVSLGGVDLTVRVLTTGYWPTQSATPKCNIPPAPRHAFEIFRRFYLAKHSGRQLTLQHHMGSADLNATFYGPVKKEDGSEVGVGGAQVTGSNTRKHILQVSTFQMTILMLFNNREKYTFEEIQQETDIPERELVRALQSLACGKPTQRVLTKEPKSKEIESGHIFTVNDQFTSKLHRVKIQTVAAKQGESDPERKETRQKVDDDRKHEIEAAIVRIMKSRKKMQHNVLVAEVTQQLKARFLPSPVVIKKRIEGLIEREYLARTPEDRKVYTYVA
UniProt Q8VBV7: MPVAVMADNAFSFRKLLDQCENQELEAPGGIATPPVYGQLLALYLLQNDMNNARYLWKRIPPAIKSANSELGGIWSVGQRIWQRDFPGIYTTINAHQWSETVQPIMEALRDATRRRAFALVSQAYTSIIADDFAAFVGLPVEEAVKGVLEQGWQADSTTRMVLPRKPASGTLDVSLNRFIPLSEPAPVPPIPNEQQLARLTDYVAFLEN
UniProt Q9WTX6: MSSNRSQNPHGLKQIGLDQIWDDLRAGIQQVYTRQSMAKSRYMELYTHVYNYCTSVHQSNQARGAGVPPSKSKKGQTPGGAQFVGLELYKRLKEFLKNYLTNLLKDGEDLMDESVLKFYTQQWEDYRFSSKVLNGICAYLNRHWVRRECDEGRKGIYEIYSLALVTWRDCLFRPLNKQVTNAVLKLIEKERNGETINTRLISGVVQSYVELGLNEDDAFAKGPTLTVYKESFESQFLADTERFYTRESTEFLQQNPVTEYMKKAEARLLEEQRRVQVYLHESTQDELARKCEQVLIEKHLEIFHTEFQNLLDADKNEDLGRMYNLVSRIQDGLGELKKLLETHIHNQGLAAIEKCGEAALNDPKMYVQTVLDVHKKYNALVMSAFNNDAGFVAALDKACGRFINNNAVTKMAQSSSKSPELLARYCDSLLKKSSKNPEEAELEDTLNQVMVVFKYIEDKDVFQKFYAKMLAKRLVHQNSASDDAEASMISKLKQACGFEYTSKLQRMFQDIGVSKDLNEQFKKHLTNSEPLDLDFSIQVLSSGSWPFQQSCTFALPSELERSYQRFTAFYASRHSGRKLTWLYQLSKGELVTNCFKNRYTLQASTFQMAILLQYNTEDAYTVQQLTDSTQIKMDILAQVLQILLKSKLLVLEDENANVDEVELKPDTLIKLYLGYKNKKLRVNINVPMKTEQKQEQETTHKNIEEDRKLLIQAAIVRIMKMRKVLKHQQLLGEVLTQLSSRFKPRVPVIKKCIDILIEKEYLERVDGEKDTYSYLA

Key:
[1] = molecular target: T1, GST-tagged MEIS1-FL (mouse) (UniProt Q60954); assay: affinity purification with mass spectrometry; GST-MEIS1-FL transfected into N2a cells, precipitated with glutathione beads, LC-MS/MS; single biological replicate
T1 sequence: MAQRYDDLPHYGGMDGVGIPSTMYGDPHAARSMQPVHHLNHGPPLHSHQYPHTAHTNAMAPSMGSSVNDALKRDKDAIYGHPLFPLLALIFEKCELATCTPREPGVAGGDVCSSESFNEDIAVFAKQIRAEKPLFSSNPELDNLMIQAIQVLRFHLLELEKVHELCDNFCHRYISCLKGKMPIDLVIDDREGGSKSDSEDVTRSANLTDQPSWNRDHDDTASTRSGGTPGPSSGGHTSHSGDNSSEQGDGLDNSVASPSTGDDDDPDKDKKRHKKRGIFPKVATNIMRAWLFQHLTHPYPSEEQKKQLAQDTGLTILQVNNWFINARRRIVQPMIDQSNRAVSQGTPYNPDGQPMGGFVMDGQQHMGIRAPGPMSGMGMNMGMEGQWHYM

GST-tagged ATOH1 (mouse) = molecular target: T2, GST-tagged ATOH1 (mouse) (UniProt P48985); assay: affinity purification with mass spectrometry; GST-ATOH1 transfected into N2a cells (alone or plus MEIS1-FL), pulled down, bound molecules by LC-MS/MS; single biological replicate
T2 sequence: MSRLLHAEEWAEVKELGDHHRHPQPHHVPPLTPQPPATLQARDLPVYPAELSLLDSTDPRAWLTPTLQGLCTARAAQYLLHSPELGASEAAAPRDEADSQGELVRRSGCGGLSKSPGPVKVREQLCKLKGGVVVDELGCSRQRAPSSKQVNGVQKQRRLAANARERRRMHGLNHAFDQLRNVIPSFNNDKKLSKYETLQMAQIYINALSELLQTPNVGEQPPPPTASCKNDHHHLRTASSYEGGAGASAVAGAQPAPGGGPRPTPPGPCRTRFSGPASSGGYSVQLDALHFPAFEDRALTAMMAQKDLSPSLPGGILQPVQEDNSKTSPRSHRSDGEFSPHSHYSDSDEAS

binding [1]: binds
Molecule: COPS4 (from UniProt O88544 1-406)

binding [1]: binds
Molecule: COPS3 (from UniProt O88543 1-423)

binding (GST-tagged ATOH1 (mouse)): binds
B1: CAND1 (protein, UniProt Q6ZQ38 1-1230)
chain: MASASYHISNLLEKMTSSDKDFRFMATNDLMTELQKDSIKLDDDSERKVVKMILRLLEDKNGEVQNLAVKCLGPLVSKVKEYQVETIVDTLCTNMLSDKEQLRDISSIGLKTVIGELPPASSGSALAANVCKKITGRLTSAIAKQEDVSVQLEALDIMADMLSRQGGLLVNFHPSILTCLLPQLTSPRLAVRKRTIIALGHLVMSCGNIVFVDLIEHLLSELSKNDSMSTTRTYIQCIAAISRQAGHRIGEYLEKIIPLVVKFCNVDDDELREYCIQAFESFVRRCPKEVYPHVSTIINICLKYLTYDPNYNYDDEDEDENAMDADGGDDDDQGSDDEYSDDDDMSWKVRRAAAKCLDAVVSTRHEMLPEFYKTVSPALIARFKEREENVKADVFHAYLSLLKQTRPVQSWLCDPDAMEQGDTPLTMLQSQVPNIVKALHKQMKEKSVKTRQCCFNMLTELVNVLPGALTQHIPVLVPGIIFSLNDKSSSSNLKIDALSCLYVILCNHSPQVFHPHVQALVPPVVACVGDPFYKITSEALLVTQQLVKVIRPLDQPSSFDATPYIKDLFTCTIKRLKAADIDQEVKERAISCMGQIICNLGDNLGPDLSNTLQIFLERLKNEITRLTTVKALTLIAGSPLKIDLRPVLGEGVPILASFLRKNQRALKLGTLSALDILIKNYSDSLTAAMIDAVLDELPPLISESDMHVSQMAISFLTTLAKVYPSSLSKISGSILNELIGLVRSPLLQGGALSAMLDFFQALVVTGTNNLGYMDLLRMLTGPVYSQSTALTHKQSYYSIAKCVAALTRACPKEGPAVVGQFIQDVKNSRSTDSIRLLALLSLGEVGHHIDLSGQLELKSVILEAFSSPSEEVKSAASYALGSISVGNLPEYLPFVLQEITSQPKRQYLLLHSLKEIISSASVAGLKPYVENIWALLLKHCECAEEGTRNVVAECLGKLTLIDPETLLPRLKGYLISGSSYARSSVVTAVKFTISDHPQPIDPLLKNCIGDFLKTLEDPDLNVRRVALVTFNSAAHNKPSLIRDLLDSVLPHLYNETKVRKELIREVEMGPFKHTVDDGLDIRKAAFECMYTLLDSCLDRLDIFEFLNHVEDGLKDHYDIKMLTFLMLVRLSTLCPSAVLQRLDRLVEPLRATCTTKVKANSVKQEFEKQDELKRSAMRAVAALLTIPEAEKSPLMSEFQSQISSNPELAAIFESIQKDSSSTNLESMDTS

binding [1]: binds
B3: COPS7a (protein, UniProt Q9CZ04 1-275)
chain: MSAEVKVTGQNQEQFLLLAKSAKGAALATLIHQVLEAPGVYVFGELLDMPNVRELAESDFASTFRLLTVFAYGTYADYLAEARNLPPLTDAQKNKLRHLSVVTLAAKVKCIPYAVLLEALALRNVRQLEDLVIEAVYADVLRGSLDQRNQRLEVDYSIGRDIQRQDLSAIAQTLQEWCVGCEVVLSGIEEQVSRANQHKEQQLGLKQQIESEVANLKKTIKVTTAAAAAATSQDPEQHLTELREPASGTNQRQPSKKASKGKGLRGSAKIWSKSN

The remaining lines, values behind:

Molecule: COPS6 (of N2a cells) (from UniProt O88545 1-324)
binding [1]: binds

Molecule: COPS2 (from UniProt P61202 1-443)
binding [1]: binds

Molecule: Cullin-3 (CUL3) (from UniProt Q9JLV5 1-768)
binding (GST-tagged ATOH1 (mouse)): binds

Molecule: COPS8 (from UniProt Q8VBV7 1-209)
binding [1]: binds

Molecule: CUL1 (from UniProt Q9WTX6 1-776)
binding [1]: binds

B2: UBE2M (protein, UniProt P61082 1-183)
chain: MIKLFSLKQQKKEEESAGGTKGSSKKASAAQLRIQKDINELNLPKTCDISFSDPDDLLNFKLVICPDEGFYKSGKFVFSFKVGQGYPHDPPKVKCETMVYHPNIDLEGNVCLNILREDWKPVLTINSIIYGLQYLFLEPNPEDPLNKEAAEVLQNNRRLFEQNVQRSMRGGYIGSTYFERCLK
binding (GST-tagged ATOH1 (mouse)): binds
